The source of these data is the supplement of paper PMC12819154, “High-throughput peptide-centric local stability assay extends protein–ligand identification to membrane proteins, tissues and bacteria” (Nature Structural & Molecular Biology, 2025).

The chains behind the UniProt entries cited, without tags or fusion partners. Where a name states a change or a piece, a line headed by the entry shows the natural chain unless it says otherwise.
UniProt Q96MK2: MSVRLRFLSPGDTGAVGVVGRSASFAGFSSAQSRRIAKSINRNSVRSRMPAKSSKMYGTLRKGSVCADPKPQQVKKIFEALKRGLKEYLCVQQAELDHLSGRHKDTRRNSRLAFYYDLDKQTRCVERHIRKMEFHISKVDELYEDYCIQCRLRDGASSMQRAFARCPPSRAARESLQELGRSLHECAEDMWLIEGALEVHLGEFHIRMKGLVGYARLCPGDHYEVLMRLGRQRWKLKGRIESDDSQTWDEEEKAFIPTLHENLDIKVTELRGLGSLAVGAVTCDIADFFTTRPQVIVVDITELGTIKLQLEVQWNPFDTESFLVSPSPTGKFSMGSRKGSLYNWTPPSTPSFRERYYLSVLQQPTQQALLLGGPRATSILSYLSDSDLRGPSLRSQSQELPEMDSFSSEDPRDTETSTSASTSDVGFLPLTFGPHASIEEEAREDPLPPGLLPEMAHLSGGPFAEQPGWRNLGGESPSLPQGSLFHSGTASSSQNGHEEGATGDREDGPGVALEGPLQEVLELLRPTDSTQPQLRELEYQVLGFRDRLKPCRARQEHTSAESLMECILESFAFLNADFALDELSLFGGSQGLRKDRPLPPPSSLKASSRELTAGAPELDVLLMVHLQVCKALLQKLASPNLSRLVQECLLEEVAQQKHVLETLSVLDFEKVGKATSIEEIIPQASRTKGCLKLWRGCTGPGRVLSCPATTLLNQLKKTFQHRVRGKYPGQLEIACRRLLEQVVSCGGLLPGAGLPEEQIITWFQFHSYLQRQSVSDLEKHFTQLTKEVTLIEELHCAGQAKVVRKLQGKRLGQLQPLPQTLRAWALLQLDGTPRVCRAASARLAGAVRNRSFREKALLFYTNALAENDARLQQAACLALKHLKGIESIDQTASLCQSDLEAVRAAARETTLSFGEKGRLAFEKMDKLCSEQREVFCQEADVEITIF
UniProt Q96IC2: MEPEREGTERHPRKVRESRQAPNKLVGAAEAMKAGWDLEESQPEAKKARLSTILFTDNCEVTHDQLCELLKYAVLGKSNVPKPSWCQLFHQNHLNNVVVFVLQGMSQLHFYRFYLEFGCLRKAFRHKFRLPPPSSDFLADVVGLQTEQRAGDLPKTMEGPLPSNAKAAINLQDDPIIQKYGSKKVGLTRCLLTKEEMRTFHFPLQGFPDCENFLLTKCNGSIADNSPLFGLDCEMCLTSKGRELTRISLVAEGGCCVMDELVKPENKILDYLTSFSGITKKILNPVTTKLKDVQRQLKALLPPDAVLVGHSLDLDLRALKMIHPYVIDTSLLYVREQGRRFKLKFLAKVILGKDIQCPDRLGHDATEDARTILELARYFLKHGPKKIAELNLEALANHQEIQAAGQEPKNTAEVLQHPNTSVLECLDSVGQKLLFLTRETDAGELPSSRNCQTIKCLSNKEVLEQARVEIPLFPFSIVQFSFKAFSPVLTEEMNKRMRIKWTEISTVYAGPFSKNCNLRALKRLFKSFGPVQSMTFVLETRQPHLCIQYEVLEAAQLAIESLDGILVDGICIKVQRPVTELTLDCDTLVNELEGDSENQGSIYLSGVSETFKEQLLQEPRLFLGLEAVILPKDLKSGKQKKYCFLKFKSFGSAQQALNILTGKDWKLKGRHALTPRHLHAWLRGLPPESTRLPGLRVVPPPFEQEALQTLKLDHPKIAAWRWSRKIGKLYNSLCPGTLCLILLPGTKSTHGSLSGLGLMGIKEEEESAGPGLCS
UniProt Q96H35: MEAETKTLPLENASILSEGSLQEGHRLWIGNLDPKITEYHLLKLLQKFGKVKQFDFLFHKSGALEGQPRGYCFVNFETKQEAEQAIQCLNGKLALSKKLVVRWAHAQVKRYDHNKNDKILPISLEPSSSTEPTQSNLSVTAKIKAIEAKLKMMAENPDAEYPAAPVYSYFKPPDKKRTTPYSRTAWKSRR
UniProt Q96PE1: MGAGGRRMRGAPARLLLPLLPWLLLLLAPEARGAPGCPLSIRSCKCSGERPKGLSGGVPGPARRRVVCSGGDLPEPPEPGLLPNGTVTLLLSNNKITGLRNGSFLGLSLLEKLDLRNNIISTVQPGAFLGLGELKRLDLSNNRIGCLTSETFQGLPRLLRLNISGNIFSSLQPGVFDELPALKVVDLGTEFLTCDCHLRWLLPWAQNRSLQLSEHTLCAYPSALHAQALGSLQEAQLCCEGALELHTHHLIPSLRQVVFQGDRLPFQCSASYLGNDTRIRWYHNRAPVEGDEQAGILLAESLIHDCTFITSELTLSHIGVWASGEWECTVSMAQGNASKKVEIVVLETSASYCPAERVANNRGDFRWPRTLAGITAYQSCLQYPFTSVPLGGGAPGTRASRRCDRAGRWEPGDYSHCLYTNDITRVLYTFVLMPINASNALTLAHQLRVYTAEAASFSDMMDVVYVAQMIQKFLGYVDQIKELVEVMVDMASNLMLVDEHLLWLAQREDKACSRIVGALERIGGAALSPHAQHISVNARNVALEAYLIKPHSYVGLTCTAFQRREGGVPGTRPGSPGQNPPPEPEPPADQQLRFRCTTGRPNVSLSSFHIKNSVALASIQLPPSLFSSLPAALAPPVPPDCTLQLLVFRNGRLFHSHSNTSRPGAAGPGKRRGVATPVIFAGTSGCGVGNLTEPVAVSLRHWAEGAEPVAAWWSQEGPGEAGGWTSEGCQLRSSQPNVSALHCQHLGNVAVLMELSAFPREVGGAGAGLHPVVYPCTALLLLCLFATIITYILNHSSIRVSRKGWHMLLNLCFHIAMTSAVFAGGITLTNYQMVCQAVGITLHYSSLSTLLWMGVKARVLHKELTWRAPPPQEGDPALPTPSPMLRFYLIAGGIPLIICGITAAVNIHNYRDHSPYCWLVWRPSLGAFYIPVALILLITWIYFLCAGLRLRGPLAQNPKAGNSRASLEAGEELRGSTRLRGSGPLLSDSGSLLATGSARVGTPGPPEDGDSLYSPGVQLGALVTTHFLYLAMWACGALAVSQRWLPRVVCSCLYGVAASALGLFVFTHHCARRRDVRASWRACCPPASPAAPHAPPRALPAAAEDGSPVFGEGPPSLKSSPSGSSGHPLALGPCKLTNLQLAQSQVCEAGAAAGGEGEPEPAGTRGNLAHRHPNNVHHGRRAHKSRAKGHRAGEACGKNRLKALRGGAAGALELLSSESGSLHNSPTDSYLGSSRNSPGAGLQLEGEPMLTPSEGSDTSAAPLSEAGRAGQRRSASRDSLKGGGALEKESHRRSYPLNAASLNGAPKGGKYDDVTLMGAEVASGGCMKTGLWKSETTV
UniProt Q96L46: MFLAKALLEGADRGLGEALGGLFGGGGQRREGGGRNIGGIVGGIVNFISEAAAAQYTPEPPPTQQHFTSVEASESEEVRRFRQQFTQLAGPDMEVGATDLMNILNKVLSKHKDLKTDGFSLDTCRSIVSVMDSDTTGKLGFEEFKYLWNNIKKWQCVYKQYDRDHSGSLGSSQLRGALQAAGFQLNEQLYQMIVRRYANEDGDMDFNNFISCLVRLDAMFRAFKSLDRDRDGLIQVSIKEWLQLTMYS
UniProt Q96PK6: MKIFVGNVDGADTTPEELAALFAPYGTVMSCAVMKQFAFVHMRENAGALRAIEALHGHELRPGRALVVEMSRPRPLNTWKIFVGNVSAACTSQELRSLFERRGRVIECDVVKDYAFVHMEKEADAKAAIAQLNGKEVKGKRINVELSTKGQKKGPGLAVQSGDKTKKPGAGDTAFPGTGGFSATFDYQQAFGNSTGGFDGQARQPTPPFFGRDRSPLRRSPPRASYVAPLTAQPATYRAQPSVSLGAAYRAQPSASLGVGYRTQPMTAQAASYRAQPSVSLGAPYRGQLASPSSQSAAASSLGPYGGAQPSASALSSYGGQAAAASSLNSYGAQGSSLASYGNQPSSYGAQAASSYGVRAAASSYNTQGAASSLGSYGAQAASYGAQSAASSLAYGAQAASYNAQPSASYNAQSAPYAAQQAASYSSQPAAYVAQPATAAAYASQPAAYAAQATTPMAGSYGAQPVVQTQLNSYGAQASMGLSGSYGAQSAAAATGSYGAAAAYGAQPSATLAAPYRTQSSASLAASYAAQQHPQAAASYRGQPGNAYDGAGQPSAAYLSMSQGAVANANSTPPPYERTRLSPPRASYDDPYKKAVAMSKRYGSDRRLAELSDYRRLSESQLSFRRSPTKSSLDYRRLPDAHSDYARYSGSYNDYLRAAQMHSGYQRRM
UniProt Q96NY9: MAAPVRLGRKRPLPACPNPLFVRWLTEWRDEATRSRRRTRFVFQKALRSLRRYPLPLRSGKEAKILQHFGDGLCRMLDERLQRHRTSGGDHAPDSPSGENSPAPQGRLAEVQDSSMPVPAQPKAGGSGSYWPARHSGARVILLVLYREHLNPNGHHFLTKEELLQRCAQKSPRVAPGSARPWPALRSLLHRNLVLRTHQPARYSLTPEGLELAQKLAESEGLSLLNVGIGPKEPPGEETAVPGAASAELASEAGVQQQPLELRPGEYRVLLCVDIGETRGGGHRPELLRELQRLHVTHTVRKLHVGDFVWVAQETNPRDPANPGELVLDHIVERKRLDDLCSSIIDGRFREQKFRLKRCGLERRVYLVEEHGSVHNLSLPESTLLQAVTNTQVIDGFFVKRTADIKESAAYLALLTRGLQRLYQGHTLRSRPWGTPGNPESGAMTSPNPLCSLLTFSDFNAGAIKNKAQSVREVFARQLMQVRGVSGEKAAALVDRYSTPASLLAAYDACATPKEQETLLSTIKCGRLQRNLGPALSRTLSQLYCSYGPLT
UniProt Q96PX1: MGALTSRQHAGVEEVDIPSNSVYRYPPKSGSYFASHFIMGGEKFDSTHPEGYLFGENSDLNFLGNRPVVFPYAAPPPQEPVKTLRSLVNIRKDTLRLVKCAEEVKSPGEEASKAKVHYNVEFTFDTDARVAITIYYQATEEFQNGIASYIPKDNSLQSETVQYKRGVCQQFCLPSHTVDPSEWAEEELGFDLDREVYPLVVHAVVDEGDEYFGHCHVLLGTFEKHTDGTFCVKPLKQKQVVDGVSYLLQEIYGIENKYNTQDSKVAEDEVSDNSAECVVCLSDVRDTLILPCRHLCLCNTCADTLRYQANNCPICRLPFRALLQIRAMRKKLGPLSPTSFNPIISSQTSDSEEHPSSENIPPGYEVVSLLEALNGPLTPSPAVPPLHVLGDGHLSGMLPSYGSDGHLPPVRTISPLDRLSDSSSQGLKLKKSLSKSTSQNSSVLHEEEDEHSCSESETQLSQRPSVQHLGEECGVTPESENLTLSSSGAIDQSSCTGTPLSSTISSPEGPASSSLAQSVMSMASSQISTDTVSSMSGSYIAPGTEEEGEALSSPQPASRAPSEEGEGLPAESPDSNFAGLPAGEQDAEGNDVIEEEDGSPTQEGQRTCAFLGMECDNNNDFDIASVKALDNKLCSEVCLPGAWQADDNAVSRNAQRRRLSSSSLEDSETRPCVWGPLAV
UniProt Q96M89: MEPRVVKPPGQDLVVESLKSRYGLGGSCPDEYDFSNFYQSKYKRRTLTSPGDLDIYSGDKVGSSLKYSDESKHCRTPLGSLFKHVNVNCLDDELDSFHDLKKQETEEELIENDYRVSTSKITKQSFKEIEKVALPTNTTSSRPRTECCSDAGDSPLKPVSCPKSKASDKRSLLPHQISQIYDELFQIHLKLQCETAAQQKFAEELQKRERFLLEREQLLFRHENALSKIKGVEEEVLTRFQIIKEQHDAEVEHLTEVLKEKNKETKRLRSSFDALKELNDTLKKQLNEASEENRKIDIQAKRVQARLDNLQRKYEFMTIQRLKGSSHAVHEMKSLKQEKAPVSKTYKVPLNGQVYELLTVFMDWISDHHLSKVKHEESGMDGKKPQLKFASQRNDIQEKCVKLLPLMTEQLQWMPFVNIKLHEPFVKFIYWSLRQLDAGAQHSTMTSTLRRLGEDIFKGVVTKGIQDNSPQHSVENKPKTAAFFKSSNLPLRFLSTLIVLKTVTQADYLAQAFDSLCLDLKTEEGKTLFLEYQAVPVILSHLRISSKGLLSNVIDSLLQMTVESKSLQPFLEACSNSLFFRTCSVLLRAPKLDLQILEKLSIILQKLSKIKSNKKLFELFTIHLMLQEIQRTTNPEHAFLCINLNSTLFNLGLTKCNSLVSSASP
UniProt Q96JA3: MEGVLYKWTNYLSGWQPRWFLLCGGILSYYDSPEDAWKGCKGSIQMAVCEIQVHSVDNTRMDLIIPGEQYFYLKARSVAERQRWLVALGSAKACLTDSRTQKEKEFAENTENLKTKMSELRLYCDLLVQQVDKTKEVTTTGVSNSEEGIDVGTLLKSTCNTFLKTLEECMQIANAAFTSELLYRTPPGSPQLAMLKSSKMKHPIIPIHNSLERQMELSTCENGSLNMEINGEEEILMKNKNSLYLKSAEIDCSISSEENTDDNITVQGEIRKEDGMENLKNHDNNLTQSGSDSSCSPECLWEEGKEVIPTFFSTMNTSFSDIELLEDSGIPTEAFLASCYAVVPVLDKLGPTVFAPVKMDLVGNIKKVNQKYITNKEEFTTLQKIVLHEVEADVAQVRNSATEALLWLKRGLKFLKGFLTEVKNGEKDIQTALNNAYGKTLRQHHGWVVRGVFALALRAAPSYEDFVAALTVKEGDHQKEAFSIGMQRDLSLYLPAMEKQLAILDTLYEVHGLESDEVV

The list shows a part of the results. Small differences around the control level are noise.

Compound in the experiment: CN[C@@H]1C[C@H]2O[C@@](C)([C@@H]1OC)n1c3ccccc3c3c4c(c5c6ccccc6n2c5c31)C(=O)NC4 [staurosporine]
The experiment in a line: log2 fold change of tryptic peptide abundance, ligand vs vehicle (limited proteolysis) (log2 ratio); higher = more trypsin-susceptible (destabilized). Conditions: ligand concentration: 20 uM; sample: K562 cleared lysate; digestion: 4 min, 22 C (HT-PELSA RT4min, Orbitrap Astral).
Regarding “UniProt Q96MK2 (peptide sequence: RLGQLQPLPQTLR, peptide start residue: 810)”, the log2 fold change is -0.621.
Next, “DDX27 (peptide sequence: KSVFDEELTNTSKK, peptide start residue: 745) (UniProt Q96GQ7)”: -0.257.
Next, “UniProt Q96MY1 (peptide sequence: IQAIIESCSR, peptide start residue: 216)”: -0.167; “REXO5 (peptide sequence: LFLGLEAVILPK, peptide start residue: 621) (UniProt Q96IC2)”: -0.312.
In the case of “RBM18 (peptide sequence: ITEYHLLK, peptide start residue: 36) (UniProt Q96H35)”, the log2 fold change amounted to 0.49.
As for “FNBP1 (peptide sequence: NDSQLVIEAYK, peptide start residue: 263) (UniProt Q96RU3)”, the log2 fold change was -0.404.
Next, “SCYL1 (peptide sequence: VLTSAFSR, peptide start residue: 467) (UniProt Q96KG9)”: 0.341.
Next, “UniProt Q96PE1 (peptide sequence: GGGALEK, peptide start residue: 1282)”: 0.165.
Turning to “SPG11 (peptide sequence: CSIPIHALEAGIENR, peptide start residue: 526) (UniProt Q96JI7)”, the log2 fold change worked out at 0.385.
Then “PYURF (peptide sequence: KQEEVEQR, peptide start residue: 107) (UniProt Q96I23)”, with -0.144; and “UniProt Q96PU8 (peptide sequence: MVGEMETK, peptide start residue: 1)”, with 0.128.
For the target “UniProt Q96RT6 (peptide sequence: EATEAQSLEATCEKLNR, peptide start residue: 728)”, the log2 fold change is -0.317.
On to “CAPNS2 (peptide sequence: LGFEEFK, peptide start residue: 159) (UniProt Q96L46)”, for which the log2 fold change was found to be 0.456.
“UniProt Q96NM4 (peptide sequence: DPNEPQKPVSAYALFFR, peptide start residue: 219)”: the log2 fold change is 0.103.
Consider “ZNF830 (peptide sequence: VINQEELR, peptide start residue: 15) (UniProt Q96NB3)”, for which the log2 fold change is -0.155.
Consider “PCYT2 (peptide sequence: AMGDYLIVGVHTDEEIAK, peptide start residue: 47) (UniProt Q99447)”, for which the log2 fold change was -0.238.
Next, “RBM14 (peptide sequence: TQPMTAQAASYR, peptide start residue: 263) (UniProt Q96PK6)”: 0.0788; “MUS81 (peptide sequence: RPLPACPNPLFVR, peptide start residue: 11) (UniProt Q96NY9)”: 0.566.
In the case of “UniProt Q96PX1 (peptide sequence: YQANNCPICR, peptide start residue: 308)”, the log2 fold change was -0.00674.
As for “PRMT6 (peptide sequence: YKVGDQEEK, peptide start residue: 359) (UniProt Q96LA8)”, the log2 fold change amounted to 0.754.
Then “CCDC138 (peptide sequence: VVKPPGQDLVVESLK, peptide start residue: 5) (UniProt Q96M89)”, with 0.331.
Next, “RBM17 (peptide sequence: RPDPDSDEDEDYER, peptide start residue: 150) (UniProt Q96I25)”: 0.587; “UniProt Q96TA1 (peptide sequence: HEIEGTGLPQAQLLWR, peptide start residue: 46)”: 0.409.
“REEP6 (peptide sequence: VEHFLEQR, peptide start residue: 8) (UniProt Q96HR9)”: the log2 fold change stood at 0.283.
Next, “MED15 (peptide sequence: LVSQIEDAMRK, peptide start residue: 19) (UniProt Q96RN5)”: 0.191; “PLEKHA8 (peptide sequence: MDLVGNIK, peptide start residue: 359) (UniProt Q96JA3)”: -0.242.
On to “UniProt Q96RR1 (peptide sequence: ALSPFAESSQLK, peptide start residue: 80)”, for which the log2 fold change was -0.354.
For the target “WDR92 (peptide sequence: ELFLTAGGAGGLHLWKYEYPIQR, peptide start residue: 273) (UniProt Q96MX6)”, the log2 fold change was -0.444.
Next, “TESK2 (peptide sequence: TVSVLDPYYRPR, peptide start residue: 379) (UniProt Q96S53)”: 0.163.
